The supplement of paper PMC6143611
± gives the uncertainty stated by the source. Some of the results follow. Plates or batches differ in their baseline, so values are only roughly comparable.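 At 6 dpf, larvae had a heat-shock-induced fluorescent stripe placed in rod outer segments; shedding distance, from stripe to outer segment tip, was measured in confocal stacks, roughly three fish per compound. Controls received 0.2% DMSO vehicle; compounds were flagged for ≥20% change versus same-week control and p < 0.001 (Dunnett test, mixed-effects models).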

What was measured:
[1] = test system: Danio rerio larva rod photoreceptor outer segment; test: rod outer segment growth distance Dg, difference from same-week DMSO control mean; higher = more outer segment growth; conditions: 20 µM; treatment time: 4 days (6-10 dpf)
[2] = test system: Danio rerio larva rod photoreceptor outer segment; test: rod outer segment shedding distance Ds, difference from same-week DMSO control mean; higher = less outer segment shedding; conditions: 20 µM; treatment time: 4 days (6-10 dpf)

Structure (SMILES)	rod outer segment growth distance Dg [1] [um]	rod outer segment shedding distance Ds [2] [um]
CC(C)(Oc1ccc(C2CC2(Cl)Cl)cc1)C(=O)O (configuration not stated) [Ciprofibrate]	-0.96 ± 0.23	-0.04 ± 0.13
COc1ccc(C(C)=O)c(O)c1 [Paeonol]	-0.15 ± 1.5	-4.38 ± 1.6
COc1ccc2[nH]c([S+]([O-])Cc3ncc(C)c(OC)c3C)nc2c1 (configuration not stated) [Omeprazole]	-0.41 ± 0.2	-0.74 ± 0.26
O=C(NC1CCNCC1)c1n[nH]cc1NC(=O)c1c(Cl)cccc1Cl	-1.66 ± 0.18	1.39 ± 0.15
O=C(O)Cn1nnc(-c2cc(N3CCC(Oc4cc(F)ccc4Br)CC3)no2)n1	0.03 ± 0.3	-0.34 ± 0.21
O=c1cc(-c2ccccc2)oc2cc(O)c(O)c(O)c12 [Baicalein]	-0.23 ± 0.21	0.58 ± 0.34
CN(C)C(=O)[C@H](O)[C@H](Cc1ccccc1)NC(=O)c1cc2cc(Cl)ccc2[nH]1	-2.48 ± 0.23	-1.1 ± 0.13
CCN1C[C@H](C)n2c(c(O)c3c(=O)n(Cc4ccc(F)c(Cl)c4)nc(C(=O)NC)c32)C1=O	-1 ± 0.14	0.47 ± 0.14
O=C1CCC(N2C(=O)c3ccccc3C2=O)C(=O)N1 (configuration not stated) [Thalidomide]	-0.14 ± 0.18	-1.83 ± 0.24
Cc1ccnc2c1NC(=O)c1cccnc1N2C1CC1 [Nevirapine]	-0.63 ± 0.22	-0.08 ± 0.17
COC1CCN(C(=O)c2cc(Cc3n[nH]c(=O)c4ccccc34)ccc2F)CC1	-0.81 ± 0.18	0.19 ± 0.12
COc1cc2c(cc1-c1c(C)noc1C)ncc1[nH]c(=O)n([C@H](C)c3ccccn3)c12	-0.45 ± 0.15	0.66 ± 0.12
CC1(C)CCC(c2ccc(Cl)cc2)=C(CN2CCN(c3ccc(C(=O)NS(=O)(=O)c4ccc(N[C@H](CCN5CCOCC5)CSc5ccccc5)c(S(=O)(=O)C(F)(F)F)c4)cc3)CC2)C1 [ABT-263 (Navitoclax)]	0.48 ± 0.25	-1.79 ± 0.32
O=C(Nc1ccccc1)Nc1ccc(-c2ccc(C(=O)[C@@H]3CCC[C@H]3C(=O)O)cc2)cc1	-0.95 ± 0.23	-0.15 ± 0.13
O=C(O)c1ccc(-n2nc(-c3ccccc3O)nc2-c2ccccc2O)cc1 [Deferasirox]	0.32 ± 0.29	0.34 ± 0.14
CN(C)Cc1c(C(=O)NCCOc2ccc(C(=O)NO)cc2)oc2ccccc12	-0.82 ± 0.21	0.91 ± 0.24
Cc1cc(NC(=O)Nc2ccc(N(C)C)cc2)c2cc(F)cc(F)c2n1	-0.49 ± 0.15	0.35 ± 0.15
Nc1nc(F)nc2c1ncn2[C@@H]1O[C@H](COP(=O)(O)O)[C@@H](O)[C@@H]1O [Fludarabine Phosphate]	-0.98 ± 0.26	0.17 ± 0.22
Cc1ccc([C@@H]2O[C@H](CO)[C@@H](O)[C@H](O)[C@H]2O)cc1Cc1ccc(-c2ccc(F)cc2)s1 [Canagliflozin]	0.15 ± 0.12	0.21 ± 0.12
O=c1[nH]cnc2c1ncn2[C@H]1CC[C@@H](CO)O1 [Didanosine]	0.89 ± 0.29	-0.19 ± 0.11
COc1cccc2c1C(=O)c1c(O)c3c(c(O)c1C2=O)C[C@@](O)(C(=O)CO)C[C@@H]3O[C@H]1C[C@H](N)[C@H](O[C@@H]2CCCCO2)[C@H](C)O1 [Pirarubicin]	-1.5 ± 0.23	-0.03 ± 0.22
CN(C)Cc1cccc(N=C(c2ccccc2)c2c(O)[nH]c3cc(C(=O)N(C)C)ccc23)c1	-1.86 ± 0.23	1.05 ± 0.19
CN(C)c1cc(NC(=O)CNC(C)(C)C)c(O)c2c1C[C@H]1C[C@H]3[C@H](N(C)C)C(=O)C(C(N)=O)=C(O)[C@@]3(O)C(=O)C1=C2O [Tigecycline]	0.74 ± 0.24	-0.26 ± 0.29
CC(=O)OCC(CCn1cnc2cnc(N)nc21)COC(C)=O [Famciclovir]	0.48 ± 0.27	0.36 ± 0.29
CC(C)=CCC[C@](C)(O[C@@H]1O[C@H](CO[C@@H]2OC[C@@H](O)[C@H](O)[C@H]2O)[C@@H](O)[C@H](O)[C@H]1O)[C@H]1CC[C@]2(C)[C@@H]1[C@H](O)C[C@@H]1[C@@]3(C)CC[C@H](O[C@@H]4O[C@H](CO)[C@@H](O)[C@H](O)[C@H]4O)C(C)(C)[C@@H]3CC[C@]12C [Gynostemma Extract]	0.52 ± 0.29	-0.51 ± 0.36
Cc1ccc(NC(=O)c2ccc(CN3CCN(C)CC3)cc2)cc1Nc1nccc(-c2cccnc2)n1 [Imatinib (STI571)]	1.19 ± 0.31	-0.39 ± 0.26

Two records picked at random from the list so far, as already listed:
Structure (SMILES)	rod outer segment growth distance Dg [1] [um]	rod outer segment shedding distance Ds [2] [um]
O=C(O)c1ccc(-n2nc(-c3ccccc3O)nc2-c2ccccc2O)cc1 [Deferasirox]	0.32 ± 0.29	0.34 ± 0.14
COC1CCN(C(=O)c2cc(Cc3n[nH]c(=O)c4ccccc34)ccc2F)CC1	-0.81 ± 0.18	0.19 ± 0.12
